No constants are given. Whether binding was seen depends on the method and setting. In cells and extracts the contact can be indirect. Some entries that bind do so weakly or less than the wild type. For part of these data: Where a sequence is shown, tags or fusion partners need not be part of it.
Assays:
[1] = target: T1, full-length ^35S-methionine labeled CPS-6 (C. elegans) (UniProt Q95NM6); experiment: GST pull-down (FIG. 7A)
T1 sequence (35S-methionine labelled, looked up): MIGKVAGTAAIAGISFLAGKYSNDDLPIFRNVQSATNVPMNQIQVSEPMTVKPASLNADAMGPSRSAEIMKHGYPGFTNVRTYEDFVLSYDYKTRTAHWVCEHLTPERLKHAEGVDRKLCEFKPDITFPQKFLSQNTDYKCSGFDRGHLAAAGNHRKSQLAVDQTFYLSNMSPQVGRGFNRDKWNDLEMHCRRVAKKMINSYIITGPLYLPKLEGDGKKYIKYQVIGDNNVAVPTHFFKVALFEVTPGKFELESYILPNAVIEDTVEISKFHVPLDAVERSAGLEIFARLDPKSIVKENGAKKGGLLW

Protein sequences, listed by entry. Tags and fused reporters are not part of them. Residues count along the entry.
UniProt Q17778, residues 22-375: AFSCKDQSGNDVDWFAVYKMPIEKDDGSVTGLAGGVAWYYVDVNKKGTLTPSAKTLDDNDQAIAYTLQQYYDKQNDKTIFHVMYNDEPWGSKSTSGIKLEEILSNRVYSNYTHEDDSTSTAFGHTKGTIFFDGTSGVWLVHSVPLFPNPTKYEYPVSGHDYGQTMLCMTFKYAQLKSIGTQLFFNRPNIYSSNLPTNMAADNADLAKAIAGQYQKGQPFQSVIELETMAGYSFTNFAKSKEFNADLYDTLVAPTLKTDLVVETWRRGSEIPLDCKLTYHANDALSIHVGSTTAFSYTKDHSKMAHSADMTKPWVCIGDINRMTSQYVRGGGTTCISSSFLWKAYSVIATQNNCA

GST-CPS-6 (C. elegans) [2] = target: T2, GST-CPS-6 (C. elegans) (UniProt Q95NM6); experiment: GST pull-down, in vitro
T2 sequence (looked up): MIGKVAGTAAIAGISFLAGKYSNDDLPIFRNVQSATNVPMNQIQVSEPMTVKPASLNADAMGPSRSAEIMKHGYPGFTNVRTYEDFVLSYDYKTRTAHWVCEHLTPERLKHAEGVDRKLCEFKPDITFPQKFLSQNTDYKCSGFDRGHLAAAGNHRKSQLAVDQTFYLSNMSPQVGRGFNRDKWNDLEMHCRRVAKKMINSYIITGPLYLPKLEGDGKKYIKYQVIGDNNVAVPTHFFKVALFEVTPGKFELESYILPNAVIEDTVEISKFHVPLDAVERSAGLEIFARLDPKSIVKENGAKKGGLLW

GST-CPS-6 (C. elegans) [3] = target: T2, GST-CPS-6 (C. elegans); experiment: GST pull-down, 35S-Met protein vs GST fusion; ++ = strong interaction
GST-CRN-4 (C. elegans) [4] = target: T3, GST-CRN-4 (C. elegans) (UniProt Q10905); experiment: as above
T3 sequence (looked up): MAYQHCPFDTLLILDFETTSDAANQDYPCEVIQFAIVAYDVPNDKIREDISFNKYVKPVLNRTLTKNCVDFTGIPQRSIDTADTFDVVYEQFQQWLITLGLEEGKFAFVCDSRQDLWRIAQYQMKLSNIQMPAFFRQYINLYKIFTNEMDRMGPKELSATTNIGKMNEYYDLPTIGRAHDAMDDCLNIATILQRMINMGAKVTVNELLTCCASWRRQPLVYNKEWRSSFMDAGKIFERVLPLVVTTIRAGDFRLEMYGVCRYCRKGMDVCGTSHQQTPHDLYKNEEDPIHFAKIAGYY

GST-CRN-1 (C. elegans) [5] = target: T4, GST-CRN-1 (C. elegans) (UniProt Q9N3T2); experiment: GST pull-down, 35S-Met protein vs GST fusion; + = consistently above background
T4 sequence (looked up): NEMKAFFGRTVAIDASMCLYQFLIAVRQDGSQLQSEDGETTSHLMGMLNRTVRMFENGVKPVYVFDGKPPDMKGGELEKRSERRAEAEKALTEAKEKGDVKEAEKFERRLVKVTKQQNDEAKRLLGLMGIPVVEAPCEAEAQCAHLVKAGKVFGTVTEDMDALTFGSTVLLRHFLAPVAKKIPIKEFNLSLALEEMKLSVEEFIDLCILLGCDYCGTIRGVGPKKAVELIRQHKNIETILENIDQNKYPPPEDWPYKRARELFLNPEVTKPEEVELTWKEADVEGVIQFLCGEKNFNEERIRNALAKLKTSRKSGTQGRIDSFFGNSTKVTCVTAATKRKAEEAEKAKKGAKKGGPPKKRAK

GST-CRN-5 (C. elegans) = target: T5, GST-CRN-5 (C. elegans) (UniProt G5EG59); experiment: as above
T5 sequence: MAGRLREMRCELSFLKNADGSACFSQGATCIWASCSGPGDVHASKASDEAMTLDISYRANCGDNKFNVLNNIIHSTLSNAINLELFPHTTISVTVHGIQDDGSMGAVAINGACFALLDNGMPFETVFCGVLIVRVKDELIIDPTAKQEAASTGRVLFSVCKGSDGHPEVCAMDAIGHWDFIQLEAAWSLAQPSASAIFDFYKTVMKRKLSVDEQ

GST-NUC-1 (C. elegans) = GST-NUC-1 (C. elegans) (UniProt Q17778); experiment: as above
GST-CRN-1 (C. elegans) [6] = target: T4, GST-CRN-1 (C. elegans); experiment: GST pull-down, in vitro
GST-CRN-1 (C. elegans) [7] = target: T4, GST-CRN-1 (C. elegans); experiment: GST pull-down, 35S-Met protein vs GST fusion; ++ = strong interaction
GST-CRN-4 (C. elegans) [8] = target: T3, GST-CRN-4 (C. elegans); experiment: GST pull-down, 35S-Met protein vs GST fusion; + = consistently above background
GST-CYP-13 (C. elegans) = experiment: as above
[9] = target: T1, full-length ^35S-methionine labeled CPS-6 (C. elegans); experiment: GST pull-down
[10] = target: T6, CPS-6(21-308) (C. elegans) (UniProt Q95NM6); experiment: GST pull-down (FIG. 7A)
T6 sequence (35S-methionine labelled, looked up): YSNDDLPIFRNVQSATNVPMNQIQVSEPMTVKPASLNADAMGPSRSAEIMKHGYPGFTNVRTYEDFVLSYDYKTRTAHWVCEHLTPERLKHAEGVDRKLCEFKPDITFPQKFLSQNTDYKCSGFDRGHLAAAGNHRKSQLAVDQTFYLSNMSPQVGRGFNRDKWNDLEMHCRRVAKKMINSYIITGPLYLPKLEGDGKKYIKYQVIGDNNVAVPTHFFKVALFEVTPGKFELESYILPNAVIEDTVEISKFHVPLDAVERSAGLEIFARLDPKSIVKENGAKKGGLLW

[11] = target: T1, full-length ^35S-methionine labeled CPS-6 (C. elegans); experiment: summary of Example 8 (GST pull-down)
[12] = target: T1, full-length ^35S-methionine labeled CPS-6 (C. elegans); experiment: in vitro GST pull-down
[13] = target: T1, full-length ^35S-methionine labeled CPS-6 (C. elegans); experiment: GST pull-down, 5 µg GST fusion, 35S-Met labelled proteins (FIG. 7A)

Measured: binding

B1: CRN-1(DY-AA) (enzyme, C. elegans, UniProt Q9N3T2 1-382, looked up)
chain: MGIKGLSQVIADNAPSAIKVNEMKAFFGRTVAIDASMCLYQFLIAVRQDGSQLQSEDGETTSHLMGMLNRTVRMFENGVKPVYVFDGKPPDMKGGELEKRSERRAEAEKALTEAKEKGDVKEAEKFERRLVKVTKQQNDEAKRLLGLMGIPVVEAPCEAEAQCAHLVKAGKVFGTVTEDMDALTFGSTVLLRHFLAPVAKKIPIKEFNLSLALEEMKLSVEEFIDLCILLGCAACGTIRGVGPKKAVELIRQHKNIETILENIDQNKYPPPEDWPYKRARELFLNPEVTKPEEVELTWKEADVEGVIQFLCGEKNFNEERIRNALAKLKTSRKSGTQGRIDSFFGNSTKVTCVTAATKRKAEEAEKAKKGAKKGGPPKKRAK
binds: [1]

B2: ^35S-Methionine labeled CRN-4 (enzyme, C. elegans, UniProt Q10905 1-298, looked up)
chain: MAYQHCPFDTLLILDFETTSDAANQDYPCEVIQFAIVAYDVPNDKIREDISFNKYVKPVLNRTLTKNCVDFTGIPQRSIDTADTFDVVYEQFQQWLITLGLEEGKFAFVCDSRQDLWRIAQYQMKLSNIQMPAFFRQYINLYKIFTNEMDRMGPKELSATTNIGKMNEYYDLPTIGRAHDAMDDCLNIATILQRMINMGAKVTVNELLTCCASWRRQPLVYNKEWRSSFMDAGKIFERVLPLVVTTIRAGDFRLEMYGVCRYCRKGMDVCGTSHQQTPHDLYKNEEDPIHFAKIAGYY
modifications: 35S-methionine labelled
binds: GST-CPS-6 (C. elegans) [2] | GST-CPS-6 (C. elegans) [3] | GST-CRN-4 (C. elegans) [4] | GST-CRN-1 (C. elegans) [5] | GST-CRN-5 (C. elegans) | GST-NUC-1 (C. elegans)

B3: full-length ^35S-methionine labeled CPS-6 (enzyme, C. elegans, UniProt Q95NM6 1-308, looked up)
chain: MIGKVAGTAAIAGISFLAGKYSNDDLPIFRNVQSATNVPMNQIQVSEPMTVKPASLNADAMGPSRSAEIMKHGYPGFTNVRTYEDFVLSYDYKTRTAHWVCEHLTPERLKHAEGVDRKLCEFKPDITFPQKFLSQNTDYKCSGFDRGHLAAAGNHRKSQLAVDQTFYLSNMSPQVGRGFNRDKWNDLEMHCRRVAKKMINSYIITGPLYLPKLEGDGKKYIKYQVIGDNNVAVPTHFFKVALFEVTPGKFELESYILPNAVIEDTVEISKFHVPLDAVERSAGLEIFARLDPKSIVKENGAKKGGLLW
modifications: 35S-methionine labelled
binds: GST-CRN-1 (C. elegans) [6] | GST-CRN-1 (C. elegans) [7] | GST-CRN-4 (C. elegans) [8] | GST-CRN-5 (C. elegans) | GST-CYP-13 (C. elegans)

B4: CRN-1 glutathione S-transferase fusion protein GST-CRN-1(21-382) (protein, C. elegans, UniProt Q9N3T2 21-382, looked up, not shown: a dimerising Fc or GST)
chain: NEMKAFFGRTVAIDASMCLYQFLIAVRQDGSQLQSEDGETTSHLMGMLNRTVRMFENGVKPVYVFDGKPPDMKGGELEKRSERRAEAEKALTEAKEKGDVKEAEKFERRLVKVTKQQNDEAKRLLGLMGIPVVEAPCEAEAQCAHLVKAGKVFGTVTEDMDALTFGSTVLLRHFLAPVAKKIPIKEFNLSLALEEMKLSVEEFIDLCILLGCDYCGTIRGVGPKKAVELIRQHKNIETILENIDQNKYPPPEDWPYKRARELFLNPEVTKPEEVELTWKEADVEGVIQFLCGEKNFNEERIRNALAKLKTSRKSGTQGRIDSFFGNSTKVTCVTAATKRKAEEAEKAKKGAKKGGPPKKRAK
binds: [9] | [10] | [1] | [11] | [12] | [13]

From patent US20050142568A1
